Test results published in patent publication US20230391865A1.
These are yes or no findings as the source states them, for the method shown. Some binding calls cover weakened binding; strength is not graded here.

Chains of the proteins cited; added tags and fusions are not shown.
UniProt O60637: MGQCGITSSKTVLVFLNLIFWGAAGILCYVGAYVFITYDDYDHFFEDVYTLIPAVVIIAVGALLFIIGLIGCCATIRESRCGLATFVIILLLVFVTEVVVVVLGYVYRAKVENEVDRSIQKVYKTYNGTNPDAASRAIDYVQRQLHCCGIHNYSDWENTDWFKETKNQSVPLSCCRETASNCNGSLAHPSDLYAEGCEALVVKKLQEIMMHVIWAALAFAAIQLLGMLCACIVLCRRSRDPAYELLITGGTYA

Molecular target: human Tetraspanin-3 (TSPAN3) (human) (UniProt O60637)
Test: FACS screen of hybridoma clones on cell surface expressed TSPAN3

binding: binds
B1: Anti-TSPAN3 M3 clone monoclonal antibody (antibody, V domains shown)
VH: QIQLVQSGPELKKPGETVKISCKASGYTFTTYGMSWVKQAPGKGLKWMGWINTYSGVPTYADDFKGRFAFSLETSASTAYLQINNLKNEDTATYFCARSHYSNFYAMDYWGQEPQSP
VL: DIVMTQSHKFMSTSVGDRVSITCKASQDVGTAVAWYQQKPGQSPKLLIYWASTRHTGVPDRFTGSGSGTDFTLTISNVQSEDLADYFCQQYSSYPLTFGAGTKLELK
